Some results were stated once for a whole list of compounds, not compound by compound.
System: DSS-induced colitis mice
Assay: DSS-induced acute colitis in mouse: body weight, colon length, colon weight, general condition
Format: in vivo
Description: Induction of acute colitis. Acute colitis was induced by giving mice with 2.5% DSS (MP Biomedicals) in a drinking water for 5 consecutive days. The DSS administration was taken place in two separate days; where the mice were divided into two groups based on their body weight before the day of the DSS administration.
Route of drug administration.
Treatment doses. Diacerein was administered at 2 dose levels of 30 and 60 mg/kg, once daily for 5 days.
Animals. Eight-week-old female C57BL/6 mice were obtained from Japan SLC, Inc. (Japan). All animals used in the study were housed and cared in accordance with the Japanese Pharmacological Society Guidelines for Animal Use.
The average body weight of mice is about 18-22 grams.
The viability, clinical signs and behavior were monitored daily. Body weight was recorded before the treatment. […] Mice were sacrificed by exsanguinations through direct cardiac puncture under isoflurane anesthesia (Pfizer Inc.). Colon length and weight were measured from the end of the cecum to the anus.
The pharmacological effects of aloe-emodin, emodin, and rhein were also respectively tested using the same protocol described above.

Which “improvement in colon length than the DSS-induced vehicle group” value (Diacerein 30 and 60 mg/kg PO QD, significant) does the source give for `CC(=O)Oc1cccc2c1C(=O)c1c(OC(C)=O)cc(C(=O)O)cc1C2=O` [Diacerein, 1,8-Diacetoxy-3-carboxyanthraquinone] here?
The value was 11-16%.

And the “decrease in colon-to-body weight ratio than the DSS-induced vehicle group” value (both Diacerein groups (30 and 60 mg/kg), not statistically significant)?
Its value is 7-9%.
